Some results were stated once for a whole list of compounds, not compound by compound. At least one compound was matched to its structure with a doubt left.
How the values were obtained:
Test in all cases: MIC of antibiotics for the strain used
Format in all cases: cell-based
[1] = test system: Enterococcus faecalis KIH-C233; settings: E. faecalis KIH-C233, collected from a patient
[2] = test system: Enterococcus faecium KIH-237; settings: E. faecium KIH-237, collected from an imported chicken
[3] = test system: Enterococcus faecium KIH-234; settings: E. faecium KIH-234, collected from a patient
[4] = test system: Enterococcus gallinarum KIH-241; settings: E. gallinarum KIH-241, collected from a chicken grown in Japan

Measured: MIC

Cc1nnc(SCC2=C(C(=O)O)N3C(=O)[C@@H](NC(=O)Cn4cnnn4)[C@H]3SC2)s1 [CEZ, cefazolin]
> 32 µg/mL: all assays above

gentajuycin [GM]
> 32 µg/mL: all assays above
